At least one structure is not confirmed: it was looked up by name or label, or the drawing left a doubt.
Key:
[1] = tested on: BRAF-mutated pancreatic cancer; assay: Response and progression-free survival on BRAF/MEK/ERK-directed therapy, retrospective clinical case series; format: in vivo, human; conditions: one patient with BRAF ΔNVTAP, vemurafenib plus chemotherapy
BRAF V600_K601delinsE = conditions: case reports for a similar alteration (cell cut off), PMID: 24108467; cited from earlier work
BRAF T599_V600insT = conditions: case reports for this alteration, PMID: 23833300; cited from earlier work

For CCCS(=O)(=O)Nc1ccc(F)c(C(=O)c2c[nH]c3ncc(-c4ccc(Cl)cc4)cc23)c1F [vemurafenib], which response [1] is on record?
The response was “response not evaluable after initial toxicity and discontinuation”.

What about the “Implications for BRAF Inhibitors: vemurafenib sensitivity by case reports” value (BRAF V600_K601delinsE) of the same compound?
Its value is “confirmed”.

What about the “Implications for BRAF Inhibitors: vemurafenib sensitivity by case reports” value (BRAF T599_V600insT) of the same compound?
Its value is “confirmed”.

From patent US20230060581A1, “METHOD OF TREATING PANCREATIC CANCER” (CEDARS-SINAI MEDICAL CENTER, priority 2020, published 2023)
